“And” between values parts separate entries of the source, which are not always exact repeats. Identical values can stand only once. Inconclusive results and toxic doses are left out. Rule for the calls: active = survival T/C of 150% or more; inactive = T/C below 125% in these data.
Tested on: CD2F1 mice, intracerebral P388 leukemia, median survival T/C%
Experiment: NCI In Vivo Anticancer Drug Screen. Data for tumor model P388 Leukemia (intracerebral) in CD2F1 (CDF1) mice
Details: endpoint: median survival time, schedule: Q01DX005 (ip), vehicle: Klucel (hydroxypropylcellulose) (HPC), higher = longer survival
Procedure: The antitumor activity of compounds was measured in mice bearing transplantable tumors. Survival or tumor size were measured and the results are expressed as the measurement made in the treated group (T) divided by the measurement made in the vehicle treated control group (C). The tumor model used in this assay is P388 Leukemia (intracerebral) in CD2F1 (CDF1) mice

Measured: T/C

COc1cc2c(c(OC)c1OC)-c1ccc(OC)c(=O)cc1[C@@H](N)CC2
inactive: dose: 4.0 mg/kg/injection 115 % of control and 120 % of control | dose: 8.0 mg/kg/injection 121 % of control and 111 % of control | dose: 16.0 mg/kg/injection 110 % of control

From PubChem BioAssay AID334 (DTP/NCI, 2004)
